Assay results published in patent US20230181581A1, “CIRCULATING B CELL SUBPOPULATIONS IN INDOLENT B CELL LYMPHOMA” (Alexion Pharmaceuticals, Inc., priority 2020, published 2023).

Test system: patients with indolent B cell lymphoma (iNHL)
Assay: Phase IIa study: clinical response (best response) to single agent cerdulatinib in r/r iNHL patients grouped by baseline B cell subsets
Type: in vivo, human
Settings: 30 mg BID
Description: This example describes a phase IIa study designed to determine the safety, efficacy, pharmacokinetics, and pharmacodynamics of cerdulatinib at the selected phase II dose of 30 mg BID, dosed in 28 day cycles, in patients with r/r B or T cell malignancies.
Up to 50 patients were enrolled in 5 cohorts; aggressive lymphoma, iNHL, CLL/SLL, PTCL (all receiving single agent cerdulatinib), and iNHL with cerdulatinib in combination with anti-CD20 therapy. Patients remained on drug until discontinuation due to progressive disease (PD), adverse event (AE), withdrawal of consent (WC), or at the discretion of the treating physician.
Forty patients with iNHL were enrolled in a cohort receiving single agent cerdulatinib. From this cohort, 30 ml of whole blood was collected from each patient at pre-dose at baseline (C1), cycle 2 day 1 (C2), cycle 3 day 1 (C3), and cycle 6 day 1 (C6) in 10 ml mononuclear cell protection tubes (CPT tubes, BD Bioscience, San Jose, CA) and immediately centrifuged to separate mononuclear cells from plasma and red blood cells at each clinical site. At each time point, tubes were shipped for same day delivery to Caprion Biosciences, Montreal Canada, for preparation and live cell freezing of peripheral blood mononuclear cells (PBMC) by ficoll gradient centrifugation using standard procedures. Banked PBMC’s were stored at -80° C. until 5-8 patient samples through cycle 6 were obtained to enable batched flow cytometry analysis of B cell subsets for each patient over time.
A PCA analysis of the data was performed to identify subgroups of patients characterized by a common B cell phenotype. Subsequent analysis of the results of the PCA by hierarchical clustering was performed.

Structure (SMILES): CCS(=O)(=O)N1CCN(c2ccc(Nc3ncc(C(N)=O)c(NC4CC4)n3)cc2)CC1 [cerdulatinib, 4-(cyclopropylamino)-2-((4-(4-(ethylsulfonyl)piperazin-1-yl)phenyl)amino)pyrimidine-5-carboxamide]
- Best Response RM, percent of patients (G1 (N=9)): 33.3%
- Best Response WD_MZL, percent of patients (G1 (N=9)): 11.1%
- Best Response RM, percent of patients (G2 (N=16)): 12.5%
- Best Response WD_MZL, percent of patients (G2 (N=16)): 0 (0%)
- Best Response RM, percent of patients (G2 + G3 (N=29)): 6.9%
- Best Response WD_MZL, percent of patients (G2 + G3 (N=29)): 0 (0%)
- Best Response RM, percent of patients (G3 (N=13)): 0 (0%)
- Best Response WD_MZL, percent of patients (G3 (N=13)): 0 (0%)
- Best Response RM, percent of patients (Total (N=38)): 13.2%
- Best Response WD_MZL, percent of patients (Total (N=38)): 2.6%
